# Measured values taken from publication PMC5996148.
# This is one part of the list. For some assays here: The exact form of the protein is not confirmed.
# What was measured:
# Assay in all cases: protein microarray (ProtoArray v5.0), streptavidin-Alexa Fluor 647
# Conditions in all cases: 3'-biotin; 20 mM Tris (pH 7.5), 5 mM MgCl2, 100 mM KCl, 0.1% Tween-20, A/T-rich and random oligonucleotide blockers; temperature not stated; high values mean tight binding
# [1] = tested on: C4orf19 (human)
# [2] = tested on: C4orf35 (human)
# [3] = tested on: C5orf3 (human)
# [4] = tested on: C6orf106 (human)
# [5] = tested on: C6orf108 (human)
# [6] = tested on: C6orf118 (human)
# [7] = target: T1, C6orf130 (UniProt Q9Y530)
# T1 sequence: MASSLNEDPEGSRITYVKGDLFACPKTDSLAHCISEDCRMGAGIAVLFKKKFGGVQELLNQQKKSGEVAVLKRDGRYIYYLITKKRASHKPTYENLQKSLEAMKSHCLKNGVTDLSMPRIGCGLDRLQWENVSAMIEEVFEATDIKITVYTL
# [8] = tested on: C6orf145 (human)
# [9] = tested on: C6orf206 (human)
# [10] = tested on: C6orf49 (human)
# [11] = tested on: C6orf89 (human)
# [12] = tested on: C7orf13 (human)
# [13] = tested on: C7orf24 (human)
# [14] = tested on: C7orf36 (human)
# [15] = tested on: C7orf41 (human)
# [16] = tested on: C8G (human)
# [17] = tested on: C8orf43 (human)
# [18] = tested on: C8orf47 (human)
# [19] = target: T2, C8orf59 (UniProt Q8N0T1)
# T2 sequence: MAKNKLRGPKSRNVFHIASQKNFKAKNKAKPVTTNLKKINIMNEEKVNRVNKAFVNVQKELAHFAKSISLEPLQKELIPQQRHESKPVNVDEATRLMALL
# [20] = tested on: C9orf148 (human)
sequence,measurement,setting,value
GGGGACAGGGGTATGGGGAGGGG [G4-3 biotinylated (CtG)],binding signal,[1],-0.315 z-score
same,binding signal,[2],-0.332 z-score
same,binding signal,[3],-0.339 z-score
same,binding signal,[4],-0.323 z-score
same,binding signal,[5],-0.31 z-score
same,binding signal,[6],-0.333 z-score
same,binding signal,[7],5.72 z-score
same,binding signal,[8],-0.332 z-score
same,binding signal,[9],-0.33 z-score
same,binding signal,[10],-0.342 z-score
same,binding signal,[11],-0.331 z-score
same,binding signal,[12],-0.297 z-score
same,binding signal,[13],-0.314 z-score
same,binding signal,[14],-0.343 z-score
same,binding signal,[15],-0.342 z-score
same,binding signal,[16],-0.312 z-score
same,binding signal,[17],-0.33 z-score
same,binding signal,[18],-0.333 z-score
same,binding signal,[19],3.45 z-score
same,binding signal,[20],-0.306 z-score

# Part of the list above in a different format.
sequence | measurement | setting | value
GGGGACAGGGGTATGGGGAGGGG [G4-3 biotinylated (CtG)] | binding signal | [11] | -0.331 z-score
same | binding signal | [12] | -0.297 z-score
same | binding signal | [13] | -0.314 z-score
same | binding signal | [14] | -0.343 z-score
same | binding signal | [15] | -0.342 z-score
